Out of some 31,000 sequences screened, about 1,400 (4.5%) were called active.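 Rule for the calls: active = median seed-adjusted z-score above 1 or below -1; inactive = the rest.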 Some of the results follow.

This experiment is described as follows: Novel Modifiers of Survival Motor Neuron (SMN) Protein: Gene Identification via Genome-wide siRNA Screen.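 Note: luminescence tracks full-length SMN protein made from the SMN2 reporter.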 The settings on record: HEK293T SMN2-luciferase reporter, siRNA knockdown, 72 h; actives lie on both sides. The method in brief:
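HEK293T cells stably carrying an SMN2 promoter/splicing cassette–luciferase reporter were reverse-transfected with 1 pmol siRNA per well (druggable-genome library, 3 siRNAs per gene) and grown 72 h at 37 °C. Luminescence, normalized to negative-control siRNA and log10-transformed, was scored as MAD.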
In the case of CAAGUGGAGUAACACCAAATT against VIL1, the median seed-adjusted z-score is inactive: 0.368. Consider CAACUUCGGCUUUGAAGAATT against ATP4B, for which the median seed-adjusted z-score was inactive: -0.609. Consider CUUCAAUCCUGGUCCAACUTT against NAT6, for which the median seed-adjusted z-score is inactive: -0.327. As for CCAACUCAUUGAUAGGGAUTT against PRPH2, the median seed-adjusted z-score was inactive: 0.0931. On to AAGAGAAAGUUCACGAGUATT against LRPAP1, for which the median seed-adjusted z-score was inactive: -0.0616. As for CAUGCAGAUUUGUAUGUUATT against AGPAT4, the figure is inactive: 0.149; as for GGAAUAUUCUGCUAUAGGATT against PVRL3, inactive: -0.0385; as for GCAACGUCGACUACAAAAATT against MYLPF, inactive: 0.348. Then ACCUGGUUCUUGCAAAAGATT against CBX5, with inactive: 0.404. As for UGACAUGCAUGACUUCUUUTT against TAC3, the figure is inactive: -0.00265.

As to AGAUGUUCUUAAGACCAAATT against PACSIN2, the median seed-adjusted z-score was inactive: 0.73. As for CCUGGAUUCUCAUGCUCUATT against HHAT, the figure is inactive: 0.585; as for CGGUCGAACCAAACCCAUUTT against SRP14, inactive: 0.0824; as for AGCUGACCUUCUGUAGGAATT against NUBP2, inactive: -0.21. Then GAAUGAUAGUCAUACUCCUTT against USP16, with inactive: -0.173. Then ACGCCUACCUGUUUUCCCATT against CEL, with inactive: 0; and UGACGCUUAUGAACCUCUATT against GPR137, with inactive: 0.564. With AGAGGUACCAGAGACUCUATT against AMZ1, the median seed-adjusted z-score is inactive: 0.205. As for GCUCUAACCUUGUUGUUCATT against ZNF660, the figure is inactive: 0.251; as for GCAGCCGCAUAAGAAGUCATT against ATP6V1C2, inactive: 0.2; as for GGAUUUUCUACGUACGGUATT against TARS, inactive: 0.146. As for GGACUCUCGCUGUCCACAATT against OSR1, the figure is inactive: -0.185.

With CCAUCACCCGUGAAGAGAATT against CRYAB, the median seed-adjusted z-score is inactive: 0.354.

CCUUGGAUUUUUAUCAUUUTT against PTGDR: the median seed-adjusted z-score is inactive: -0.158. As for CGCUAUGGAUUCCAACUAUTT against MYOT, the figure is inactive: 0.091.

On to CAACCUAUGUGGCAGCCAUTT against ABHD11, for which the median seed-adjusted z-score is inactive: -0.189.

Turning to GUGCUUACCUUAUUGAACATT against ZFP2, the median seed-adjusted z-score is inactive: 0. As for GGACAUUGCUGAUCGCUUUTT against DMC1, the median seed-adjusted z-score was inactive: -0.00876. For CAUUCAUAGUAGAAAGAGATT against ACAD9, the median seed-adjusted z-score was inactive: -0.384. Consider GAAUCAAGAAUUAAAGACATT against PIPOX, for which the median seed-adjusted z-score is active: 1.06.

For the sequence GACAAGUGAUAGUGAAUGATT against ZNF35, the median seed-adjusted z-score is inactive: -0.332.

ACCUGAUUCUGCAAAGAUATT against LILRB4: the median seed-adjusted z-score is inactive: -0.104. Then UCACCUUUGUCAUCUAUGATT against NECAB2, with inactive: -0.286; and GCCAGAAUGCAUGACUUCATT against BRF1, with inactive: -0.261.

For the sequence GGACUACUUUGGUGAGUGUTT against AP3M1, the median seed-adjusted z-score is inactive: 0. For CGAAGGUGCUUGCAUUGGATT against MEGF8, the median seed-adjusted z-score is inactive: 0.0906. As for GGGACUAACAUGUACAACATT against PCDH24, the figure is inactive: 0.345; as for GGAGUUUCCAGAGAUCACATT against UPRT, inactive: -0.441. As for UCACCUCAUUUCUAAGAAATT against OVOL1, the figure is inactive: -0.0414; as for GCUCUUUGCCGUUUCUAAUTT against SLC29A2, inactive: -0.0569. As for UACUGUCUCUAGUCUUUUUTT against SEC11B, the figure is active: 1.04. For the sequence GUCCUUGACAUGAAGCGUATT against GSTM5, the median seed-adjusted z-score was inactive: -0.861. With GGAUUUGAGCAAUGCUGUATT against RAD9B, the median seed-adjusted z-score was inactive: 0.0879. As for GAACCAUCGUUUUACAAGATT against ACVR1B, the figure is inactive: 0.201. As for GCCUCGAUUCUCUACACUATT against PTPRT, the figure is inactive: -0.323; as for CAAUGUUCCUUUGCUAGUUTT against CTNNA2, inactive: -0.0686; as for GCAGUAUAUUACAAACAAATT against NAT2, inactive: -0.0495. Then CUACCUCUCUUGUUUGGAATT against TRIP13, with active: 1. As to GGUGGAUAAGGAUUUGGAUTT against SOX11, the median seed-adjusted z-score is inactive: 0.02. Then CGAGUUUGACAUCAAUGAATT against ECSIT, with inactive: -0.116; and GAUGUAUCCAGUUAAAGCATT against NPHP1, with inactive: -0.0667. Consider GGACAAGAAUUUUGCCUUUTT against U2AF2, for which the median seed-adjusted z-score is active: 2.14. For UGAUCGAGGUGAACAAUGUTT against AVPR1A, the median seed-adjusted z-score is inactive: 0.

In the case of GGCCCAAGCUUCAACAGCATT against DNASE2, the median seed-adjusted z-score was active: -1.23. As for GGAAGAAAGCCGUAAUGAATT against GK2, the figure is inactive: 0; as for AAUCAGAUUCUCAACCUAATT against KRT10, inactive: 0.493.

Turning to GAACCUAUCUGAUCGGCAATT against RFX3, the median seed-adjusted z-score is inactive: 0.17. As for GGGCUUUACAUGUAGGUAUTT against ZNF607, the figure is inactive: 0.857; as for GGAACAAAGUCGCCGUCAATT against CSK, inactive: 0.993.

Regarding CAGUGAGGCUGUUCUCGAATT against LIMCH1, the median seed-adjusted z-score was inactive: 0.125. Then CCACGAGACGGGAACAUUATT against MDM4, with inactive: 0.0554. Then GCAACACGUUUUUCCGCAATT against SV2A, with inactive: 0.138; and CAAUCAUCUUCGUCACCAATT against CCL16, with inactive: -0.308; and GGAUGAUAUGGGACCAUAATT against PTPRZ1, with active: 1.73.

Regarding GGCUGUUGGUGCUAUAGCATT against CLCN5, the median seed-adjusted z-score is inactive: 0.856. Then GGUUCAUGACAGACAAGAATT against SHMT1, with inactive: 0.179; and GCAAAUAUAAGGUCCCUGATT against GSTT1, with inactive: 0.0781. As for GAACCCAGGAUUAAUAAAATT against EHF, the figure is inactive: 0.581. Then GCAACUUAAUCUUAUCCUUTT against TTC13, with inactive: 0.0363; and AAGUCGGAAUAGAAUGGAATT against COX7B, with active: -1.16; and CAUCUCGAAUUGAACCGAATT against LRIG3, with inactive: 0.882.

On to AGAGCUCAUUAACAUGUAUTT against PEX6, for which the median seed-adjusted z-score is inactive: -0.281.

Take CAGUAGAUGCUCAAGUAUATT against DNAJC24: the median seed-adjusted z-score is inactive: -0.0166. Then GAAGAUUGCGGGUCAAUGATT against DLG1, with inactive: 0.0642; and GGAACAUGGAAGACAAGGATT against ZNF263, with inactive: 0.397; and GGUUAAUAUCUGGACAAUUTT against SC5DL, with inactive: -0.439.

Take CAACUGGAGUUAACACCGATT against ATP2A2: the median seed-adjusted z-score was inactive: 0.314. As for GAACCUCAAGAAUCGAACATT against REV1, the figure is inactive: -0.294. Then GGAAGAACGUCUUGCACAATT against EEF1B2, with inactive: 0.388.

AGUUAUUGCUACUUCAGAATT against CX3CR1: the median seed-adjusted z-score was inactive: -0.292.

Regarding GCCUGCUGAUCCACCCUAATT against UBE2S, the median seed-adjusted z-score was inactive: 0.348. As for GAACAAGUGGAUUGGUGAATT against RHOH, the figure is inactive: 0.443. As for CGAGGACCGGCAGUACAAATT against PRMT1, the figure is inactive: -0.596. Then GGCUCUAAUAAAUAUGGAATT against PURG, with inactive: 0.448; and GCAUACAGGAGAUCAACAATT against ADCY8, with inactive: 0.103. GGAAGGCUGCGGAAAAGAATT against PLD3: the median seed-adjusted z-score was inactive: 0.066.

Consider GGUCACCUAUCAUCCUUAATT against AGXT2L1, for which the median seed-adjusted z-score was inactive: 0.285. Then GGCUAUGCAGGUCCACUGUTT against DDR1, with inactive: -0.166.

Take GCAGUUCACCCAUCCAGUATT against THY1: the median seed-adjusted z-score was active: -1.1. Take UCAAUAAACUGCACGAAUATT against HS3ST1: the median seed-adjusted z-score was active: 1.21. As for CCGUUGAAAAGGGAGGCAATT against CYCS, the figure is inactive: -0.679; as for AGCCUGCGGUUUUCUGUAUTT against SYT12, inactive: -0.329. As for CGGAUUCCAGGAAUGCUAATT against EIF5B, the median seed-adjusted z-score is active: 1.68. As for GCAUUGCUCUGGUCACCAATT against GPRC5D, the figure is inactive: -0.038; as for GCCUGGAUAACAUCACUGATT against AIM2, inactive: 0.0646; as for GGUUCGACAGGGACUCAAATT against GLRX3, inactive: 0.0784.

For the sequence GCAUAUGGUUGUUCAUCGATT against PRKAA2, the median seed-adjusted z-score is inactive: -0.194.

On to AGUUCACGUGAGCACGGUATT against HOXB4, for which the median seed-adjusted z-score was inactive: 0.149.

On to GACUUUUCAGAUCACCAAATT against USP39, for which the median seed-adjusted z-score is inactive: 0.821. As for CCAGCUUCCCAUUAUCCCATT against CD248, the figure is inactive: -0.0191; as for GCAAUUUGGUGUAUCGCUUTT against PRSS23, inactive: -0.77. With CACUGGAUGUAGAACUACATT against DNAJC6, the median seed-adjusted z-score was inactive: -0.265. For CCAUCAUGCUUGAUCGGGATT against SLC4A4, the median seed-adjusted z-score was inactive: 0.43. As for GGAGUAGAGUUUGCAACAATT against RAB11A, the figure is inactive: -0.0554.

With CGGCCCUACUAAUUGGGAATT against SEMA4D, the median seed-adjusted z-score was inactive: 0.309.

As to GAAGAGCCGUAUGAUCGAATT against ZNF432, the median seed-adjusted z-score was inactive: -0.124. As for GACUGUGGAAUGAAGUAUATT against RAB39, the figure is inactive: -0.408. As for GGUCUAGCCUUACACCUCATT against RAB3GAP2, the figure is inactive: 0.0583.
